Data on one molecule can be found in patent US20200237746A1, “HSP90 TARGETED CONJUGATES AND PARTICLE FORMULATIONS THEREOF” (TARVEDA THERAPEUTICS, INC., priority 2017, published 2020).

The subject of this experiment is NCI-H69 xenograft model (small cell lung cancer). In words: Efficacy in NCI-H69 xenograft model: tumor volumes and tumor growth inhibition. It is filed as in vivo, mice. An excerpt:
Efficacies of Compound A alone or formulated in nanoparticles were studied with NCI-H69 xenograft model (small cell lung cancer).

Where “and” joins values, the source holds several entries; their conditions need not be identical. Equal entries are not always repeated. This continues a long series; more values of the same kind are listed elsewhere.

Consider `CCc1c2c(nc3ccc(OC(=O)N4CCC(CCn5ccc6cc(-n7c(O)nnc7-c7cc(C(C)C)c(O)cc7O)ccc65)CC4)cc13)-c1cc3c(c(=O)n1C2)COC(=O)[C@]3(O)CC` [Compound A, (S)-4,11-diethyl-4-hydroxy-3,14-dioxo-3,4,12,14-tetrahydro-1H-pyrano[3′,4′:6,7]indolizino[1,2-b]quinolin-9-yl 4-(2-(5-(3-(2,4-dihydroxy-5-isopropylphenyl)-5-hydroxy-4H-1,2,4-triazol-4-yl)-1H-indol-1-yl)ethyl)piperidine-1-carboxylate], for which the TV individual animal (Compound A 25 mg/kg days 1 and 8, Day 1, 25 mg/kg) is 224 mm3 and 243 mm3 and 283 mm3 and 287 mm3 and 307 mm3 and 322 mm3 and 345 mm3 and 348 mm3 and 183 mm3 and 192 mm3; the TV individual animal (Compound A 25 mg/kg days 1 and 8, Day 5, 25 mg/kg) was 336 mm3 and 393 mm3 and 434 mm3 and 365 mm3 and 471 mm3 and 469 mm3 and 480 mm3 and 481 mm3 and 200 mm3 and 277 mm3; the TV individual animal (Compound A 25 mg/kg days 1 and 8, Day 8, 25 mg/kg) was 339 mm3 and 499 mm3 and 515 mm3 and 414 mm3 and 514 mm3 and 449 mm3 and 500 mm3 and 497 mm3 and 175 mm3 and 336 mm3; the TV individual animal (Compound A 25 mg/kg days 1 and 8, Day 11, 25 mg/kg) is 321 mm3 and 434 mm3 and 450 mm3 (2×) and 279 mm3 and 508 mm3 and 348 mm3 and 547 mm3 and 160 mm3 and 335 mm3; the TV individual animal (Compound A 25 mg/kg days 1 and 8, Day 16, 25 mg/kg) was 235 mm3 and 513 mm3 and 444 mm3 and 155 mm3 and 472 mm3 and ulcer and 423 mm3 and 429 mm3 and 103 mm3 and 335 mm3; the TV individual animal entry (Compound A 25 mg/kg days 1 and 8, Day 19, 25 mg/kg) is “sick and 613 mm3 and 464 mm3 and 117 mm3 and 489 mm3 and 522 mm3 and 457 mm3 and 95 mm3 and 342 mm3”. The TV individual animal (Compound A 25 mg/kg days 1 and 8, Day 22, 25 mg/kg) is 763 mm3 and 654 mm3 and 90 mm3 and 599 mm3 and 728 mm3 and 652 mm3 and 86 mm3 and 511 mm3; the TV individual animal (Compound A 25 mg/kg days 1 and 8, Day 26, 25 mg/kg) was 990 mm3 and 750 mm3 and 80 mm3 and 828 mm3 and 1019 mm3 and 888 mm3 and 77 mm3 and 603 mm3; the TV individual animal (Compound A 25 mg/kg days 1 and 8, Day 31, 25 mg/kg) is 1378 mm3 and 1010 mm3 and 5 mm3 and 1040 mm3 and 1446 mm3 and 1077 mm3 and 60 mm3 and 915 mm3; the TV individual animal (Compound A 50 mg/kg days 1 and 8, Day 1, 50 mg/kg) was 276 mm3 and 290 mm3 and 309 mm3 and 335 mm3 and 340 mm3 and 351 mm3 and 147 mm3 and 208 mm3; the TV individual animal (Compound A 50 mg/kg days 1 and 8, Day 5, 50 mg/kg) was 394 mm3 and 320 mm3 and 381 mm3 and 333 mm3 and 384 mm3 and 513 mm3 and 445 mm3 and 227 mm3 and 311 mm3; the TV individual animal (Compound A 50 mg/kg days 1 and 8, Day 8, 50 mg/kg) is 409 mm3 and 357 mm3 and 256 mm3 and 374 mm3 and 479 mm3 and 474 mm3 and 487 mm3 and 281 mm3 and 326 mm3. Besides, the TV individual animal reads like this: (Compound A 50 mg/kg days 1 and 8, Day 11, 50 mg/kg) 332 mm3 and 278 mm3 and ulcer and 243 mm3 and 280 mm3 and 266 mm3 and 342 mm3 and 237 mm3 and 230 mm3; (Compound A 50 mg/kg days 1 and 8, Day 16, 50 mg/kg) 206 mm3 and 163 mm3 and 161 mm3 and 173 mm3 and ulcer (2×) and 176 mm3 and 150 mm3; (Compound A 50 mg/kg days 1 and 8, Day 19, 50 mg/kg) 147 mm3 and 128 mm3 and 104 mm3 and 126 mm3 and 148 mm3 and 60 mm3; (Compound A 50 mg/kg days 1 and 8, Day 22, 50 mg/kg) 153 mm3 and 132 mm3 and 141 mm3 and 123 mm3 and 171 mm3 and 68 mm3; (Compound A 50 mg/kg days 1 and 8, Day 26, 50 mg/kg) 204 mm3 and 161 mm3 and 178 mm3 and 113 mm3 and 329 mm3 and 59 mm3; (Compound A 50 mg/kg days 1 and 8, Day 31, 50 mg/kg) 420 mm3 and 348 mm3 and 313 mm3 and 276 mm3 and 613 mm3 and 6 mm3.
